Data: paper PMC5072609
No constants are given. Whether binding was seen depends on the method and setting. In cells and extracts the contact can be indirect. Some entries that bind do so weakly or less than the wild type. Values belong to the molecule of their own block, whether it stands above or below them.

Sequences of proteins named here, by UniProt entry; tags and fusion partners are left off. Residues count along the entry.
UniProt Q99816: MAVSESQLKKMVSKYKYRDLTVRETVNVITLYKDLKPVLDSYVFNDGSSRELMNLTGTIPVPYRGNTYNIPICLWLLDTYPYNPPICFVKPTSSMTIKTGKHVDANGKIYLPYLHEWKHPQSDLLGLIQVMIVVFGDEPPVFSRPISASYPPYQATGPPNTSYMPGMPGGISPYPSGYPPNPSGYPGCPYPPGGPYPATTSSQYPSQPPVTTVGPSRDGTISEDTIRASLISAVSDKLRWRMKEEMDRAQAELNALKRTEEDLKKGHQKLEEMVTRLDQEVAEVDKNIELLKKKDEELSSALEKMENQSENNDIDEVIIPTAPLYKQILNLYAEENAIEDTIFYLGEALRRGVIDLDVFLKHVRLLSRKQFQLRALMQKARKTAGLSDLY
UniProt O14964: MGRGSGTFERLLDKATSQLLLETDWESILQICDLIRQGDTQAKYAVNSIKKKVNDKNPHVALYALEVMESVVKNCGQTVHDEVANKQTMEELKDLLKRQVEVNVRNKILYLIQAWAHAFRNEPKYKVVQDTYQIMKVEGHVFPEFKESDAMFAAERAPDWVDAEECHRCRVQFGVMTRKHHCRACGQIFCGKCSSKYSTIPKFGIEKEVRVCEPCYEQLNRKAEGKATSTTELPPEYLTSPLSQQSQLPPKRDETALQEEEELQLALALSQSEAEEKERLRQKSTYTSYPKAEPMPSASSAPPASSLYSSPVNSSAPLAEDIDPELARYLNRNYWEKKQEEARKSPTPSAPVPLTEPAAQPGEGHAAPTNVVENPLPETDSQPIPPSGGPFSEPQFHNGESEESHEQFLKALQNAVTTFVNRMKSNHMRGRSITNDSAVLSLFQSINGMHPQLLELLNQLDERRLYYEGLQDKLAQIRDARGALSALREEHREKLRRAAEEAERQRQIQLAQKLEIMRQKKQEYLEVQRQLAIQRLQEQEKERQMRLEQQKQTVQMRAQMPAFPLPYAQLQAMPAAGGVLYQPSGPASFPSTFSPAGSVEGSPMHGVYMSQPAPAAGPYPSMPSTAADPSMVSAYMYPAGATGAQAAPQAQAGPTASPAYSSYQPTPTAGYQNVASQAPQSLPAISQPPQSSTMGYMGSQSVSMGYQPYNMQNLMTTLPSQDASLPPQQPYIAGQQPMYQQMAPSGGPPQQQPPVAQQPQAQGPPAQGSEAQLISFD
UniProt Q9NZZ3: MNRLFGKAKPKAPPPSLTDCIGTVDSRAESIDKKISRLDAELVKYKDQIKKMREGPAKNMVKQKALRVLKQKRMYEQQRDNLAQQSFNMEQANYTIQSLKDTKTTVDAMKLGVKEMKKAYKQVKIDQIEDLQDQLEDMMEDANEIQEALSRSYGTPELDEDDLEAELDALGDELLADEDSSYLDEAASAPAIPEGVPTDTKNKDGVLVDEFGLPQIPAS
UniProt P29317, residues 24-976: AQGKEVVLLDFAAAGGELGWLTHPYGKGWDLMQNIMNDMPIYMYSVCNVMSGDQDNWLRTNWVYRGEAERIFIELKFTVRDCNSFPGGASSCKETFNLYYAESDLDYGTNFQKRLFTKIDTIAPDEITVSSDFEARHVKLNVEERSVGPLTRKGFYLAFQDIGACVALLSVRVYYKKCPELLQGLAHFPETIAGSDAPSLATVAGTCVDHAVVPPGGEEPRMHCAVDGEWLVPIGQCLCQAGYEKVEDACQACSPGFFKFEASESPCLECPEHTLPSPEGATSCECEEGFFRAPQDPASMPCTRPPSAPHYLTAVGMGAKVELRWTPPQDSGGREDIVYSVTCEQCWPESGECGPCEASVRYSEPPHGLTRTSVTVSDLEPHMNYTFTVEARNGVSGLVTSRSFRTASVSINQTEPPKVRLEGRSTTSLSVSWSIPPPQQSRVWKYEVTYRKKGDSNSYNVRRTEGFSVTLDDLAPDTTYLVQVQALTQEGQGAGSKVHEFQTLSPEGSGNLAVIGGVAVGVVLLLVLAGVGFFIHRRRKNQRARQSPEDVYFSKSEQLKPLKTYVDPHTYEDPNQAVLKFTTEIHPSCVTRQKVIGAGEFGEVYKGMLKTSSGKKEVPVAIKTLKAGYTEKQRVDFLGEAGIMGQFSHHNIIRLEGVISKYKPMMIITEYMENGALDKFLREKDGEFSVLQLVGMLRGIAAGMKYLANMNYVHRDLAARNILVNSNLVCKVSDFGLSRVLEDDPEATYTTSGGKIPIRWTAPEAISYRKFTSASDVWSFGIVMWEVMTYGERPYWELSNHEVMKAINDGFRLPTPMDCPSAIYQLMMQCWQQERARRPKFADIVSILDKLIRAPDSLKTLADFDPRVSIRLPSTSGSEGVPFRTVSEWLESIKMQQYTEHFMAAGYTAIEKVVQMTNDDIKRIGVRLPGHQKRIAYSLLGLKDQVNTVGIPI
UniProt P46108: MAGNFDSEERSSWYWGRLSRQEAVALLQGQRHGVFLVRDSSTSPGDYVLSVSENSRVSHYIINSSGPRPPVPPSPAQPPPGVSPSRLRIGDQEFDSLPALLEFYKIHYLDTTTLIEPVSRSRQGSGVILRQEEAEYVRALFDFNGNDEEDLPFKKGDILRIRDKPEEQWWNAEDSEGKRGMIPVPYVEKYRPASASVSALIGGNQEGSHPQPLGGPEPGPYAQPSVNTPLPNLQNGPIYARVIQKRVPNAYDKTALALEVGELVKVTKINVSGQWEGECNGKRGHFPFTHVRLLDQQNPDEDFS

Key:
[1] = molecular target: ESCRT-I complex protein Tsg101 (tumor susceptibility gene 101) (human (endogenous in HMVEC-d)) (UniProt Q99816); assay: proximity ligation; Duolink PLA on fixed, permeabilised HMVEC-d cells, uninfected or KSHV infected (30 DNA copies/cell; 10 min or the indicated times), primary antibodies to the two endogenous proteins; signal within 40 nm or less
[2] = molecular target: ESCRT-I complex protein Tsg101 (tumor susceptibility gene 101) (human (endogenous in HMVEC-d)) (UniProt Q99816); assay: co-IP; anti-Tsg101 antibody on 300-500 ug precleared lysate (25 mM Tris-HCl pH 7.5, 150 mM NaCl, 1% NP40, 2 mM EDTA, 10% glycerol) of HMVEC-d cells, mock or KSHV infected (30 DNA copies/cell; 5, 10, 30 min; serum-starved 8 h for Fig 5 and Fig 8), overnight 4°C, protein A or G-Sepharose, Western …
[3] = molecular target: ESCRT-I complex protein Tsg101 (tumor susceptibility gene 101) (human (endogenous in HMVEC-d)) (UniProt Q99816); assay: co-IP; as a1, the uninfected (mock) serum-starved HMVEC-d cells only; anti-Tsg101 IP, Western blot for the signal molecules
[4] = molecular target: ESCRT-I complex protein Tsg101 (tumor susceptibility gene 101) (human (endogenous in HMVEC-d)) (UniProt Q99816); assay: as above; remark: listed apart in the source
[5] = molecular target: ESCRT-I complex protein Tsg101 (tumor susceptibility gene 101) (human (endogenous in HMVEC-d)) (UniProt Q99816); assay: co-IP; anti-Tsg101 antibody on 300-500 ug precleared lysate (25 mM Tris-HCl pH 7.5, 150 mM NaCl, 1% NP40, 2 mM EDTA, 10% glycerol) of HMVEC-d cells, mock or KSHV infected (30 DNA copies/cell; 5, 10, 30 min; serum-starved 8 h for Fig 5 and Fig 8), overnight 4°C, protein A or G-Sepharose, Western …; remark: listed apart in the source

- binding [1]: binds
- binding [2]: binds
Molecule: ESCRT-0 protein Hrs (from UniProt O14964 1-777)

- binding [1]: binds
- binding [2]: binds
Molecule: ESCRT-III protein CHMP5 (from UniProt Q9NZZ3 1-219)

- binding [1]: binds
- binding [3]: binds weakly
- binding [2]: binds
Molecule: Ephrin A2 receptor tyrosine kinase (EphA2R) (from UniProt P29317 24-976)
- binding [4]: no binding (condition: uninfected cells (without KSHV))

- binding [1]: binds
- binding [2]: binds
Molecule: adaptor Crk (from UniProt P46108 1-304)

- binding [1]: binds
- binding [5]: binds
B1: ESCRT-II protein EAP45 (protein, UniProt Q86VN1 1-386)
chain: MDRFVWTSGLLEINETLVIQQRGVRIYDGEEKIKFDAGTLLLSTHRLIWRDQKNHECCMAILLSQIVFIEEQAAGIGKSAKIVVHLHPAPPNKEPGPFQSSKNSYIKLSFKEHGQIEFYRRLSEEMTQRRWENMPVSQSLQTNRGPQPGRIRAVGIVGIERKLEEKRKETDKNISEAFEDLSKLMIKAKEMVELSKSIANKIKDKQGDITEDETIRFKSYLLSMGIANPVTRETYGSGTQYHMQLAKQLAGILQVPLEERGGIMSLTEVYCLVNRARGMELLSPEDLVNACKMLEALKLPLRLRVFDSGVMVIELQSHKEEEMVASALETVSEKGSLTSEEFAKLVGMSVLLAKERLLLAEKMGHLCRDDSVEGLRFYPNLFMTQS

- binding [1]: binds
- binding [5]: binds
B2: scaffold protein p130Cas (protein, UniProt P56945 1-870)
chain: MNHLNVLAKALYDNVAESPDELSFRKGDIMTVLEQDTQGLDGWWLCSLHGRQGIVPGNRLKILVGMYDKKPAGPGPGPPATPAQPQPGLHAPAPPASQYTPMLPNTYQPQPDSVYLVPTPSKAQQGLYQVPGPSPQFQSPPAKQTSTFSKQTPHHPFPSPATDLYQVPPGPGGPAQDIYQVPPSAGMGHDIYQVPPSMDTRSWEGTKPPAKVVVPTRVGQGYVYEAAQPEQDEYDIPRHLLAPGPQDIYDVPPVRGLLPSQYGQEVYDTPPMAVKGPNGRDPLLEVYDVPPSVEKGLPPSNHHAVYDVPPSVSKDVPDGPLLREETYDVPPAFAKAKPFDPARTPLVLAAPPPDSPPAEDVYDVPPPAPDLYDVPPGLRRPGPGTLYDVPRERVLPPEVADGGVVDSGVYAVPPPAEREAPAEGKRLSASSTGSTRSSQSASSLEVAGPGREPLELEVAVEALARLQQGVSATVAHLLDLAGSAGATGSWRSPSEPQEPLVQDLQAAVAAVQSAVHELLEFARSAVGNAAHTSDRALHAKLSRQLQKMEDVHQTLVAHGQALDAGRGGSGATLEDLDRLVACSRAVPEDAKQLASFLHGNASLLFRRTKATAPGPEGGGTLHPNPTDKTSSIQSRPLPSPPKFTSQDSPDGQYENSEGGWMEDYDYVHLQGKEEFEKTQKELLEKGSITRQGKSQLELQQLKQFERLEQEVSRPIDHDLANWTPAQPLAPGRTGGLGPSDRQLLLFYLEQCEANLTTLTNAVDAFFTAVATNQPPKIFVAHSKFVILSAHKLVFIGDTLSRQAKAADVRSQVTHYSNLLCDLLRGIVATTKAAALQYPSPSAAQDMVERVKELGHSTQQFRRVLGQLAAA

- binding [1]: binds
- binding [5]: binds
B3: ESCRT-III protein CHMP6 (protein, UniProt Q96FZ7 1-201)
chain: MGNLFGRKKQSRVTEQDKAILQLKQQRDKLRQYQKRIAQQLERERALARQLLRDGRKERAKLLLKKKRYQEQLLDRTENQISSLEAMVQSIEFTQIEMKVMEGLQFGNECLNKMHQVMSIEEVERILDETQEAVEYQRQIDELLAGSFTQEDEDAILEELSAITQEQIELPEVPSEPLPEKIPENVPVKARPRQAELVAAS
